In EP1124440B1, “USE OF […] FOR FOODSTUFF AND COSMETIC MATERIAL” (Aquacal Limited, priority 1998, dated 2000):

Settings: ice-cream

Question: Which Grittiness (1 = very gritty, 5 = not gritty) does the source give for `O=C([O-])[O-].[Ca+2]` [Calcium Carbonate] here?
Answer: The Grittiness was 4.3.

Question: And the Taste (1 = very poor, 5 = very good)?
Answer: The Taste was 2.8.

Question: What about the Acceptability (1 = worst, 5 = best) of the same compound?
Answer: The Acceptability was 2.9.

Question: What about the Preference (number of the 19 panellists) of the same compound?
Answer: Its Preference is 1.

Question: What about the panellists preferred (share of 19 panellists) of the same compound?
Answer: Its panellists preferred is 5%.
